{"source": "patent US20240125767A1", "about": "“METHOD FOR EVALUATING DRUG TOXICITY” (Public University Corporation Yokohama City University, priority 2019, published 2024)", "system": "DILI patient-derived organoid (liver organoid from iPS cells 16-24)", "procedure": "(§1) Each of iPS cells derived from human healthy person (1383D2; Kyoto University iPS Research Institute) and iPS cells derived from patients with drug-induced liver injury (16-24; Yokohama City University) were cultured at 5% CO2 and 37° C. for 3 days in a medium obtained by adding 1% B-27 Supplements (GIBCO), BMP4 (25 ng/ml) and CHIR99021 (8 μM) to DMEM/F-12 (Gibco) (10 ml), to induce mesodermal cells.\nEach of iPS cells derived from human healthy person (1383D2; Kyoto University iPS Research Institute) and iPS cells derived from patients with drug-induced liver injury (16-24; Yokohama City University) were cultured at 5% CO2 and 37° C. for 5 days in a medium obtained by adding Wnt3a (50 ng/mL) and activin A (100 ng/ml) to a basal medium RPMI (FUJIFILM Corporation) (2 ml), to induce endodermal progenitor cells.\nas §1, with “μM) to a basal mixed medium DMEM/F-12 (Gibco)” for “μM) to DMEM/F-12 (Gibco)”, “induce mesodermal progenitor cells. […]” for “induce mesodermal cells.”, “progenitor cells. […]” for “mesodermal cells.”"}
{"smiles": "CC1=C(C(=O)O)N2C(=O)[C@@H](NC(=O)[C@H](N)c3ccccc3)[C@H]2SC1", "note": "[Cephalexin, cephalexin]", "values": [{"measurement": "Toxicity to liver organoid produced using cells derived from a DILI patient, co-cultured with blood cells (result in words)", "result": "DILI was not observed"}]}
